# PubChem BioAssay AID1224826, NIAID, 2016
# Screen: 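Regulators of Tlr4 signalling leading to Tnf-alpha expression in macrophages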 (primary screen)
# System: RAW264.7 G9 macrophages from mouse bearing reporters for p65 (GFP) and the Tnf promoter (mCherry)
# Reagents: siRNA pool against mouse genes, 100 nM
# Timing: 16 h of LPS stimulation, after 2 days of siRNA transfection
# Challenge: bacterial lipopolysaccharide (Salmonella minnesota R595), 10 ng/ml
# Read-out: 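Nuclear mCherry signal of the Tnf promoter reporter measured by imaging after background removal, scaled to each plate median and turned into robust z-scores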
# Reading the numbers: Tnf reporter robust z-score: higher = stronger Tnf promoter reporter signal after LPS; Tnf reporter intensity: higher = stronger Tnf promoter reporter signal
# Rule for the call: 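Called active when robust z-score is at most -1.3, matching the median of the Tlr4 knock-down control, or over 3; control wells and wells with under 50 cells never active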
# Meaning of the calls: active = Tnf reporter clearly lowered or raised; inactive = no clear change in Tnf reporter
# The whole screen tested about 17,000 reagents; shown is an unselected part. About 1,110 of all reagents (6.6%) count as active. 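Active means lowered or raised reporter signal; replicate intensities are raw and not normalised per plate.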 Reagents against one gene are numbered here.
Gene,pool no.,Tnf reporter robust z-score,fewer than 50 cells in well,"Tnf reporter intensity, replicate 1","Tnf reporter intensity, replicate 2",Call
Fimp1 (fertilization influencing membrane protein 1),1,,fewer than 50 cells per well; well left out of calls,245,45.4,inactive
Azin2 (antizyme inhibitor 2),1,-0.68,enough cells in well,122,126,inactive
Krt1 (keratin 1),1,-0.92,enough cells in well,144,120,inactive
Iqch (IQ motif containing H),1,-0.63,enough cells in well,147,121,inactive
Ermard (ER membrane associated RNA degradation),1,0.46,enough cells in well,217,170,inactive
Ermard (ER membrane associated RNA degradation),2,0.19,enough cells in well,264,62.7,inactive
Blvra (biliverdin reductase A),1,-0.24,enough cells in well,105,188,inactive
Tut7 (terminal uridylyl transferase 7),1,,fewer than 50 cells per well; well left out of calls,160,139,inactive
Tut7 (terminal uridylyl transferase 7),2,2.15,enough cells in well,172,263,inactive
"Zmynd8 (zinc finger, MYND-type containing 8)",1,-1.08,enough cells in well,95.7,106,inactive
"Yipf6 (Yip1 domain family, member 6)",1,-0.49,enough cells in well,142,129,inactive
Ripk1 (receptor (TNFRSF)-interacting serine-threonine kinase 1),1,-0.99,enough cells in well,137,101,inactive
Zfp119b (zinc finger protein 119b),1,0.58,enough cells in well,243,252,inactive
Ola1 (Obg-like ATPase 1),1,0.25,enough cells in well,201,67.4,inactive
Mpc2,1,,fewer than 50 cells per well; well left out of calls,136,31.9,inactive
Capn10 (calpain 10),1,1.4,enough cells in well,222,226,inactive
Cbx7 (chromobox 7),1,0.48,enough cells in well,207,213,inactive
Strm (striamin),1,1.37,enough cells in well,137,154,inactive
Rft1 (RFT1 homolog),1,3.29,enough cells in well,406,333,active
"Eno1 (enolase 1, alpha non-neuron)",1,0.96,enough cells in well,286,324,inactive
Actl7b (actin-like 7b),1,0.26,enough cells in well,196,170,inactive
Ces4a (carboxylesterase 4A),1,-0.28,enough cells in well,174,202,inactive
Arid3a (AT-rich interaction domain 3A),1,0.79,enough cells in well,194,237,inactive
Fem1a (fem 1 homolog a),1,1.6,enough cells in well,235,308,inactive

3 of these entries, set out differently:
{"Gene": "Yipf6 (Yip1 domain family, member 6)", "pool no.": 1, "Tnf reporter robust z-score": -0.49, "fewer than 50 cells in well": "enough cells in well", "Tnf reporter intensity, replicate 1": 142, "Tnf reporter intensity, replicate 2": 129, "Call": "inactive"}
{"Gene": "Ripk1 (receptor (TNFRSF)-interacting serine-threonine kinase 1)", "pool no.": 1, "Tnf reporter robust z-score": -0.99, "fewer than 50 cells in well": "enough cells in well", "Tnf reporter intensity, replicate 1": 137, "Tnf reporter intensity, replicate 2": 101, "Call": "inactive"}
{"Gene": "Zfp119b (zinc finger protein 119b)", "pool no.": 1, "Tnf reporter robust z-score": 0.58, "fewer than 50 cells in well": "enough cells in well", "Tnf reporter intensity, replicate 1": 243, "Tnf reporter intensity, replicate 2": 252, "Call": "inactive"}
